Experimental data taken from patent US10450297B2, “Sulfonyl amide derivatives for the treatment of abnormal cell growth” (Pfizer, Inc., priority 2007, dated 2019).

Amino acid sequences for entries named in this document (tags omitted). Residues count along the entry.
UniProt Q05397, 410-689 limits assumed: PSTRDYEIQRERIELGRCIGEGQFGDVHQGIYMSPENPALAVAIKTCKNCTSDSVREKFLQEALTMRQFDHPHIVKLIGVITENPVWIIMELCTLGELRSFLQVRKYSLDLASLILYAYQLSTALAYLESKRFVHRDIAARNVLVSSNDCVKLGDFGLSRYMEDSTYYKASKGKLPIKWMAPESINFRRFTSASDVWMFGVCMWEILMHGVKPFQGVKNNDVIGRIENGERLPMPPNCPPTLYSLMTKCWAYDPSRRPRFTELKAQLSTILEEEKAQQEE

Biological target: FAK kinase (catalytic construct FAK(410-689)) (Homo sapiens (Human), UniProt Q05397)
Assay: FAKcd kinase ELISA (inhibition of poly-glu-tyr phosphorylation by FAK(410-689))
Assay type: biochemical
Settings: read-out: FAK IC50, 50 μM final ATP

`CN(c1ncccc1CNc1nc(Nc2ccnc(Cl)c2)ncc1C(F)(F)F)S(C)(=O)=O` showed an IC50 of 1.92 nM.

The match of structure and compound is tentative.
